# Assay results taken from paper PMC8605242.
# Protein sequences, listed by entry. Tags and fused reporters are not part of them.
# UniProt Q99595: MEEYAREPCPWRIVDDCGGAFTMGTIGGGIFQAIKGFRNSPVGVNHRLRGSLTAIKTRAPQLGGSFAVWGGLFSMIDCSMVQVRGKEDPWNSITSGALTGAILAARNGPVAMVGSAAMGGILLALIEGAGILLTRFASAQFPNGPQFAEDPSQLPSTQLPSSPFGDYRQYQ
# UniProt O60830: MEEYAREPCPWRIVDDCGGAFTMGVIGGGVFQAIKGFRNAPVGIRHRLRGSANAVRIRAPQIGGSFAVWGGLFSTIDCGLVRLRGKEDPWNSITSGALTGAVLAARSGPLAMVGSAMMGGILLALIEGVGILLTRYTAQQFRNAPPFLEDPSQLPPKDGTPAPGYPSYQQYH
# UniProt Q96DA6: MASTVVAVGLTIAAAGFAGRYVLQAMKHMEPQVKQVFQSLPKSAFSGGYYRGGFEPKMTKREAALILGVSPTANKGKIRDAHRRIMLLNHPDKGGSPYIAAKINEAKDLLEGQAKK
# These are yes or no findings as the source states them, for the method shown. Binding seen in cells or lysates may run through a third protein. Some binding calls cover weakened binding; strength is not graded here. Where a sequence is shown, tags or fusion partners need not be part of it.
# Molecular target: T1, hexahistidine tagged Magmas-1 (human) (UniProt I3L3T0)
# T1 sequence: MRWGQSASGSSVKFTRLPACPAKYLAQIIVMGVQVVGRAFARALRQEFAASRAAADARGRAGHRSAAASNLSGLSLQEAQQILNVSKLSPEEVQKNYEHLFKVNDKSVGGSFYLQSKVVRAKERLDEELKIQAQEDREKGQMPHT
# Experiment: pull-down; hexahistidine tagged Magmas variants on Ni-NTA beads; lysate of 2 mg HEK293T mitochondria in 25 mM HEPES-KOH pH 7.5, 80 mM KCl, 5 mM EDTA, 20 mM imidazole, 10% glycerol, 1 mM PMSF, 0.5% NP-40; 12 h, 4 °C; washes with 0.25% NP-40; immunoblot; only the target purified
row,Substance,binding
1,Tim17a (from UniProt Q99595 1-171),binds weakly
2,Tim17b (from UniProt O60830 1-172),binds
3,DnaJC19 (endogenous) (from UniProt Q96DA6 1-116),binds

# Molecular target: T2, hexahistidine tagged Magmas (human) (UniProt Q9Y3D7)
# T2 sequence: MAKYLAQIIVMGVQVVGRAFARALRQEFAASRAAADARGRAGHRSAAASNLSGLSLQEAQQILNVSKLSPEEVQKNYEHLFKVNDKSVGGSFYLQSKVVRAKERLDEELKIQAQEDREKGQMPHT
# Experiment: as above
row,Substance,binding
1,Tim17a (from UniProt Q99595 1-171),binds
2,Tim17b (from UniProt O60830 1-172),binds
3,DnaJC19 (endogenous) (from UniProt Q96DA6 1-116),binds
